No constants are given. Whether binding was seen depends on the method and setting. Binding seen in cells or lysates may run through a third protein. Some entries that bind do so weakly or less than the wild type. Sequences can lack the tags named with a protein.
Target: T1, Paa1-L-YFP (S. pombe) (UniProt Q9UT08)
T1 sequence: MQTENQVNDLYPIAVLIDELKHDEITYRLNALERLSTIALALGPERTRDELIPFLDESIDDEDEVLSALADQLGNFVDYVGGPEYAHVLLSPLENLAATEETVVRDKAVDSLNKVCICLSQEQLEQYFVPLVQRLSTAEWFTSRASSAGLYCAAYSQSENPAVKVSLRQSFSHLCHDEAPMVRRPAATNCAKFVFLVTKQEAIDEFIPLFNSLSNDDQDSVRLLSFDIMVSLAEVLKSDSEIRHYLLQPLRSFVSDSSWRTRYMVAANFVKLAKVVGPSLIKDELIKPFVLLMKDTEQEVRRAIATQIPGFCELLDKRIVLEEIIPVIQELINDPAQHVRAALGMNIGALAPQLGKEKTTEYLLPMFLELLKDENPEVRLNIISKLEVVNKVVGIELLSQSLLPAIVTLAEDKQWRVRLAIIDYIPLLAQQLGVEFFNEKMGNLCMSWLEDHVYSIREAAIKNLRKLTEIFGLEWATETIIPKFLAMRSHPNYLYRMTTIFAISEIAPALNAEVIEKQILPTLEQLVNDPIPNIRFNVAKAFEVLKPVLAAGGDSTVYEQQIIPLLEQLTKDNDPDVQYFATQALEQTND
Assay: co-IP; extracts of cells expressing paa1:L:YFP and trm112:L:HA, nitrogen-rich or nitrogen-depleted media, immunoprecipitated with anti-GFP beads, probed with anti-GFP and anti-HA

binding: binds
B1: Trm112-L-HA (protein, UniProt Q09723 1-126)
chain: MKLLTANFLNCSNKKCTSSPEAFPLDVVDAKLAIQQLELKPEFLIGIMPRIDWNALLKTTRQLGNYSLPDEKPDLVDDSDEVLLKSLHNVLLETEITEGKMVCGNCGHVYPIFEGIPNMLLSESEI

— publication PMC10723533
